The other results are listed elsewhere or left out.
What follows are targets tested with CC[C@@H]1C(=O)N(C)c2cnc(Nc3ccc(C(=O)NC4CCN(C)CC4)cc3OC)nc2N1C1CCCC1 (assay: log2 fold change, soluble protein after heating vs DMSO (PISA); higher = thermal stabilisation; K562 cells, 10 uM, 30 min; active = over 0.2 and 3.5 SD of the protein, either way, in both replicates (recomputed)).
Summary of the method: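 K562 cells at 2×10^6 cells/mL were treated for 30 min with 10 μM compound, and aliquots were heated for 3 min over 48°C-58°C before pooling. Extraction used PBS with 0.5% NP-40 at 4°C, and soluble protein was the supernatant after 21,000xg for 90 min, measured by TMTpro 16plex LC-MS/MS with channel sums equalised. Thermal stability values, relative to control samples and from duplicates, are log2 fold changes.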

By UniProt entry, the sequences of proteins in these tests, tags left out. Where a name states a change or a piece, a line headed by the entry shows the natural chain unless it says otherwise.
UniProt Q96H96: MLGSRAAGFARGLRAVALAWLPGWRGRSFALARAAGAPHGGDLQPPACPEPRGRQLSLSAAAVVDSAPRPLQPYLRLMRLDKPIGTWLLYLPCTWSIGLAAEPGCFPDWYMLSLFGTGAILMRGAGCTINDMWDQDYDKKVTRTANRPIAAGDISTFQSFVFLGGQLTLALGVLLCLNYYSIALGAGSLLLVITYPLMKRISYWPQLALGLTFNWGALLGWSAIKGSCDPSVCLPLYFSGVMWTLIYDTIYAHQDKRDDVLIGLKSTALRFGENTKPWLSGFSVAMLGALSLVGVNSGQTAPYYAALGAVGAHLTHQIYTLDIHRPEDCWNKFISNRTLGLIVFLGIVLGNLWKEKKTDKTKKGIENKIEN
UniProt Q86X83, whole entry, looked up: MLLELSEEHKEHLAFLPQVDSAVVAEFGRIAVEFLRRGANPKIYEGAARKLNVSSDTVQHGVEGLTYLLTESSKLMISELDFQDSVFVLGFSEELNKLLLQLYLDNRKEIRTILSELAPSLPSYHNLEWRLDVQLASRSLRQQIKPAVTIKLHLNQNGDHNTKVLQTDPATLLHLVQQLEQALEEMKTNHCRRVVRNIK
UniProt P49747: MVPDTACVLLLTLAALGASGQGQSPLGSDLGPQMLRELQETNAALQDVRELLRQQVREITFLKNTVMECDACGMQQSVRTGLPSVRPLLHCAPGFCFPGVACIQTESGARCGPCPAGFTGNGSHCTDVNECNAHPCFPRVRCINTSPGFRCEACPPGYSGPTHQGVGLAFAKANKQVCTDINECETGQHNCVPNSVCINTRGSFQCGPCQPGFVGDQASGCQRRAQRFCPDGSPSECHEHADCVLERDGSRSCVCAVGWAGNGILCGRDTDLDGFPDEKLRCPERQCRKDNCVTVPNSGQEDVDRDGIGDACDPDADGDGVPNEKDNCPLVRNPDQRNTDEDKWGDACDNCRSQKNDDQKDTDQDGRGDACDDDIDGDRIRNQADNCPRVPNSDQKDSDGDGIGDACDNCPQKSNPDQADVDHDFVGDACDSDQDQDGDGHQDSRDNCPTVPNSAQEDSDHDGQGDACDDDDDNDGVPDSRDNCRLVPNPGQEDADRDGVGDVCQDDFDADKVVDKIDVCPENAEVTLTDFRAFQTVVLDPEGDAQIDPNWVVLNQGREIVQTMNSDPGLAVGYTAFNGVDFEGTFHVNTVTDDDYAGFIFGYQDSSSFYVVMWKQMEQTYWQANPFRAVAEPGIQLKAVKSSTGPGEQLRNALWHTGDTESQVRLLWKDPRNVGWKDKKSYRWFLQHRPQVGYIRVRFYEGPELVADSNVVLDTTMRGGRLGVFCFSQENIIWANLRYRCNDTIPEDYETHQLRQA
UniProt O75575: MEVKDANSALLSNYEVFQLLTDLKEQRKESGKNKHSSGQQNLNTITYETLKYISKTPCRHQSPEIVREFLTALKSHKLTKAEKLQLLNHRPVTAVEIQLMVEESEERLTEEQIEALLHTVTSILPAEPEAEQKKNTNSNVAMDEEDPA
UniProt Q9UBI1, whole entry, looked up: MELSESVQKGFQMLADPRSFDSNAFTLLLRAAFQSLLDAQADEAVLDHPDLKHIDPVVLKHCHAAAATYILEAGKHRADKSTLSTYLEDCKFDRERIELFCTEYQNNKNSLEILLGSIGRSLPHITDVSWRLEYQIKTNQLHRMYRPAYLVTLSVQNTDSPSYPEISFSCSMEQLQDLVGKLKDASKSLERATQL
UniProt P20674, whole entry, looked up: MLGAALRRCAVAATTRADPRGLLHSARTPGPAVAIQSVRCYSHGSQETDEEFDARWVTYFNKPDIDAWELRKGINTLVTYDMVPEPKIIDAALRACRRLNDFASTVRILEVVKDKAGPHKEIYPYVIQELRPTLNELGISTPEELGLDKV
UniProt P10606, whole entry, looked up: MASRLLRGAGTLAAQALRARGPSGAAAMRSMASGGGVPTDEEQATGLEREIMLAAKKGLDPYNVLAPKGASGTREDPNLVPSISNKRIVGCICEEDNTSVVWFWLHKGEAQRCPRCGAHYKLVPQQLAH
UniProt P67870, whole entry, looked up: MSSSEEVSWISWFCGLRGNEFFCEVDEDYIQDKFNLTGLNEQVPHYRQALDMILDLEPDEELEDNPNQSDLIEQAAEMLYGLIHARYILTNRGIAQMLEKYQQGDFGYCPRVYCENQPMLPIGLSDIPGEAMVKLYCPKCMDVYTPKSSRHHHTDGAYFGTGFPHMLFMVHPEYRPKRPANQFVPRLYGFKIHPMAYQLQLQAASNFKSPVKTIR
UniProt P23786: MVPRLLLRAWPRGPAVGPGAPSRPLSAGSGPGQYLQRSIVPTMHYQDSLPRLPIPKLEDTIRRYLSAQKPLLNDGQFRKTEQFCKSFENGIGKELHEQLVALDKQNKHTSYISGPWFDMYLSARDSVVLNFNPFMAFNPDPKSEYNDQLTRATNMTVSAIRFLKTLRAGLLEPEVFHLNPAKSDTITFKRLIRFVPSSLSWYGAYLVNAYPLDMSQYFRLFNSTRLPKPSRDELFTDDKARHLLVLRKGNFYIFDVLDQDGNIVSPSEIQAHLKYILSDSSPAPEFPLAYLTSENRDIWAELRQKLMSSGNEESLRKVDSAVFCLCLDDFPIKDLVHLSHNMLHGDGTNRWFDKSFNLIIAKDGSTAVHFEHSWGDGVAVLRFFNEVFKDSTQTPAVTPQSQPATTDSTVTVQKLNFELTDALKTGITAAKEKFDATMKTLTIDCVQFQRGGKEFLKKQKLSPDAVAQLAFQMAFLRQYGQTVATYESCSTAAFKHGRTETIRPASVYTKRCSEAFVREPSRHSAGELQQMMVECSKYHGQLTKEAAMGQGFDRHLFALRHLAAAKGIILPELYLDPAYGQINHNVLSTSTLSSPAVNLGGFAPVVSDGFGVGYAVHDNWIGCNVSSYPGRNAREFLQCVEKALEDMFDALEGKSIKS
UniProt P68400, whole entry, looked up: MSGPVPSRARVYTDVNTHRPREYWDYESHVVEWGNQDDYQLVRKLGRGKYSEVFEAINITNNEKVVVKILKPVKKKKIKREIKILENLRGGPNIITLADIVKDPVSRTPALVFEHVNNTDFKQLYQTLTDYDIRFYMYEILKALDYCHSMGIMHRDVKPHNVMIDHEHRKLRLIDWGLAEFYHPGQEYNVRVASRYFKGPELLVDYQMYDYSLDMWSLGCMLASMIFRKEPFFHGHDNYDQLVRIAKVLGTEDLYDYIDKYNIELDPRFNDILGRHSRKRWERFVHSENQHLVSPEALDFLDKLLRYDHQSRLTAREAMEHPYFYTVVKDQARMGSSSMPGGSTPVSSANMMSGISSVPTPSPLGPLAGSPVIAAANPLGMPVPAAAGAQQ
UniProt P46108: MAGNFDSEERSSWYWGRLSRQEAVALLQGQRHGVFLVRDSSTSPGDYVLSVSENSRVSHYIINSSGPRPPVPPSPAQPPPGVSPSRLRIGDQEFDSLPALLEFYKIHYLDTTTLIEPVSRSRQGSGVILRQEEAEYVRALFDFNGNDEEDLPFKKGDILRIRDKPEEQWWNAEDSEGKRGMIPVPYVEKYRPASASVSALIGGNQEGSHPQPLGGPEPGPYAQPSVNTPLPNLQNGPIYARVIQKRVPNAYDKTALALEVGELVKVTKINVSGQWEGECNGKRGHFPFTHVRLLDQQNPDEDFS
UniProt O75208: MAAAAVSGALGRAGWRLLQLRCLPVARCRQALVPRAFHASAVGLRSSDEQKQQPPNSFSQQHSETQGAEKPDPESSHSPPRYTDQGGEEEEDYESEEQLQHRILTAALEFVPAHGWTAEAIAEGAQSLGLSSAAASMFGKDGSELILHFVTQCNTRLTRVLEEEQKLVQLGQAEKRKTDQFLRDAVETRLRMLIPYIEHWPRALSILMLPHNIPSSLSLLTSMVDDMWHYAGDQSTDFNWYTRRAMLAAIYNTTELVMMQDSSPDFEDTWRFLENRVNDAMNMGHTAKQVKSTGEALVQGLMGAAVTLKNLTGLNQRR
UniProt Q5RI15: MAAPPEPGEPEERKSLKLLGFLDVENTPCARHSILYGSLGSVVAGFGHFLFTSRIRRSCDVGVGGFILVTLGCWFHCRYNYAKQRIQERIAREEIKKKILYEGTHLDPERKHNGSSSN
UniProt Q92828: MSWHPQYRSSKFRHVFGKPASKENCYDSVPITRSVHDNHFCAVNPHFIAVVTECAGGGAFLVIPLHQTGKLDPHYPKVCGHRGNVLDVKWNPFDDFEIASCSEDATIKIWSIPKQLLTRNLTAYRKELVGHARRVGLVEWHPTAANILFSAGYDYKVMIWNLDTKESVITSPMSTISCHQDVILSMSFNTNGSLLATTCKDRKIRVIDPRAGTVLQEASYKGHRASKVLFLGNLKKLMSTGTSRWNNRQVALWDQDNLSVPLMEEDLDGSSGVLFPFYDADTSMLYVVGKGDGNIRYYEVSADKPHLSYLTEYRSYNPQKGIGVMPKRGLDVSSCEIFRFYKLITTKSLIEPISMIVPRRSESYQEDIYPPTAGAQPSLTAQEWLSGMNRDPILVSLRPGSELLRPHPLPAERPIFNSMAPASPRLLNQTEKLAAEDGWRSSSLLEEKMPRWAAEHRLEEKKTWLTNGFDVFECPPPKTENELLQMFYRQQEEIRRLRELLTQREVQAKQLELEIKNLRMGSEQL
UniProt Q9H0A8, whole entry, looked up: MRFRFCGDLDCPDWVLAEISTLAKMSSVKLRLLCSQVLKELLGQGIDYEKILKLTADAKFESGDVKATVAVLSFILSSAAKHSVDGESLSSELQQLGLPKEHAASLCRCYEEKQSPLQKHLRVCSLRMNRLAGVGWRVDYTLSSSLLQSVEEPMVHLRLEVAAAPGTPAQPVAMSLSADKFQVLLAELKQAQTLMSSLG
UniProt Q7Z4G1, whole entry, looked up: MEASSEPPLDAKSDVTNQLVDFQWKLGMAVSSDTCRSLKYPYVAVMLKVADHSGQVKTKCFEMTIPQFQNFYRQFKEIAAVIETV
UniProt P12074, whole entry, looked up: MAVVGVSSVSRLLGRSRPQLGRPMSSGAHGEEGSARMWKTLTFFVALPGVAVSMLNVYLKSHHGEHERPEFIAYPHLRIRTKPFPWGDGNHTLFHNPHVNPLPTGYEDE
UniProt P41240: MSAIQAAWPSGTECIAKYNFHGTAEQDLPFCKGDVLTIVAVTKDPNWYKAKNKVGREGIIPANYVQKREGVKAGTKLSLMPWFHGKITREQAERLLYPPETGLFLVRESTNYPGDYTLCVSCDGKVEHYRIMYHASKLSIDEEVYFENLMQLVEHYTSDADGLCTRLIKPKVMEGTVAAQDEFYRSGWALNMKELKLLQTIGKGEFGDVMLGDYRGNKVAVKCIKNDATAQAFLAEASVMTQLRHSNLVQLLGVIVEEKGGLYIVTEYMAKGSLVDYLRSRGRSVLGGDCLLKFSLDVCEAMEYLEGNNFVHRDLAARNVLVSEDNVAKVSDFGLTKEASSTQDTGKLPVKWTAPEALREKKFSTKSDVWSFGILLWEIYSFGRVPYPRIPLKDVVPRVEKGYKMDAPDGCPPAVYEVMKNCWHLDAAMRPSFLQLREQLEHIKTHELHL
UniProt P21964: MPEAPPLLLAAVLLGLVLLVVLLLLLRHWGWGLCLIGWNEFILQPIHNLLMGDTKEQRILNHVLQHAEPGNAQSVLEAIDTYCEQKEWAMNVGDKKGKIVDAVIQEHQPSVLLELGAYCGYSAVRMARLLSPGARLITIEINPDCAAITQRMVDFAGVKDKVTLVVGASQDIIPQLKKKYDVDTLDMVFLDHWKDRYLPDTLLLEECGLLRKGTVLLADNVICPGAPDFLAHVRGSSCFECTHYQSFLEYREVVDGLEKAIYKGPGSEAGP
UniProt Q8IUI8: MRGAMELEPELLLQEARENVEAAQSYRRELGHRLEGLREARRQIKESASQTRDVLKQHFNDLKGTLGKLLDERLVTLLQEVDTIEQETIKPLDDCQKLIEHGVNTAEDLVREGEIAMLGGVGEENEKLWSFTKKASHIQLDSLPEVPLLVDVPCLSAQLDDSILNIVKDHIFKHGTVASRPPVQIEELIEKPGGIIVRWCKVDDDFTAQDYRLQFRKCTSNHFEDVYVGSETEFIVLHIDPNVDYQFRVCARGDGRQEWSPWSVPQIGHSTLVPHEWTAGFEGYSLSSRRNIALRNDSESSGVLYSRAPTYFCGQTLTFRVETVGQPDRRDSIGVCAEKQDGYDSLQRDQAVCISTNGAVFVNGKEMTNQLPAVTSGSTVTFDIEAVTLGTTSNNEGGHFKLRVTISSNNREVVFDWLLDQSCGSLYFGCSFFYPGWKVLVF

log2 fold change, inactive:
CPSF1 (UniProt Q10570) 0.053
COPS4 (UniProt Q9BT78) -0.045
COQ2 (UniProt Q96H96) -0.092
COMMD2 (UniProt Q86X83) -0.004
COMP (UniProt P49747) 0.132
CPD (UniProt O75976) -0.152
CRCP (UniProt O75575) 0.123
COMMD3 (UniProt Q9UBI1) -0.129
COX5A (UniProt P20674) 0.048
COX5B (UniProt P10606) 0.06
CSNK2B (UniProt P67870) -0.029
CPT2 (UniProt P23786) 0.235
CSNK2A1 (UniProt P68400) 0.007
CRK (UniProt P46108) -0.059
COQ9 (UniProt O75208) -0.04
COX20 isoform 2 (UniProt Q5RI15) -0.019
CORO2A (UniProt Q92828) 0.164
COMMD4 (UniProt Q9H0A8) -0.157
COMMD6 isoform 2 (UniProt Q7Z4G1) 0.175
COX6A1 (UniProt P12074) 0.018
CSK (UniProt P41240) -0.132
COMT (UniProt P21964) 0.013
CRLF3 (UniProt Q8IUI8) -0.085

Five successive records already listed, quoted:
log2 fold change, inactive:
COX20 isoform 2 (UniProt Q5RI15) -0.019
CORO2A (UniProt Q92828) 0.164
COMMD4 (UniProt Q9H0A8) -0.157
COMMD6 isoform 2 (UniProt Q7Z4G1) 0.175
COX6A1 (UniProt P12074) 0.018

— the supplement of paper PMC10849652
